Results deposited as PubChem BioAssay AID1508587 (Peter MacCallum Cancer Centre, 2020).
In all, the deposit lists about 1,600 reagents; this is a part drawn at random. Over the whole deposit, 623 (39%) are marked active. 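Calls are for each duplex; lactate ratios contain extreme outliers.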 A number with no mark means an inactive call. Reagents against one gene are numbered here. Further read-outs or replicates are left out here.

- Purpose: 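Follow-up of vemurafenib sensitisers scored by lactate made per cell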 (follow-up of hits)
- Cells: human WM266.4 melanoma cells with a BRAF V600 mutation
- Reagents: single siRNA against human genes, 25 nM
- Timing: 96 h
- Treatment: vemurafenib 300 nM (about IC25), given 48 h after transfection for 48 h
- Measured: 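Medium lactate read by absorbance over DAPI-counted nuclei; ratio with versus without vemurafenib, set against non-targeting siRNA, averaged over 2 replicates; cell number also recorded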
- Scale: lactate per cell, drug vs no drug: higher = less drug-induced drop in lactate per cell
- Active means: 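a duplex is active when its lactate-per-cell ratio with versus without drug falls under 0.55, i.e. 2 SD below non-targeting; a gene is confirmed if 2 or more of 4 duplexes pass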

Silencing of SCLT1 #1 came out at: lactate per cell, drug vs no drug 0.28 (active). Depletion of SCLT1 #2 gave: lactate per cell, drug vs no drug 0.51 (active). For SCLT1 #3 the deposit lists lactate per cell, drug vs no drug 0.68. After knock-down of SCLT1 #4, the screen gave lactate per cell, drug vs no drug 0.61. ING5 #1 showed lactate per cell, drug vs no drug 0.52 (active). Against ING5 #2 the deposit lists lactate per cell, drug vs no drug 0.66.

With knock-down of ING5 #3, the screen gave lactate per cell, drug vs no drug 0.7. Depletion of ING5 #4 gave: lactate per cell, drug vs no drug 0.52 (active). UST #1 gave lactate per cell, drug vs no drug 0.49 (active). UST #2 showed lactate per cell, drug vs no drug 0.47 (active). After knock-down of UST #3 the results were lactate per cell, drug vs no drug 0.58. For UST #4 the deposit lists lactate per cell, drug vs no drug 0.38 (active).

Silencing of CARD11 #1 resulted in: lactate per cell, drug vs no drug 0.52 (active). CARD11 #2 scored lactate per cell, drug vs no drug 0.38 (active). Depletion of CARD11 #3 resulted in: lactate per cell, drug vs no drug 0.45 (active). CARD11 #4 showed lactate per cell, drug vs no drug 0.64. After knock-down of ASGR2 #1 the results were lactate per cell, drug vs no drug 0.56. With knock-down of ASGR2 #2 the results were lactate per cell, drug vs no drug 0.48 (active).

Depletion of ASGR2 #3 gave: lactate per cell, drug vs no drug 0.51 (active). Silencing of ASGR2 #4 gave: lactate per cell, drug vs no drug 0.52 (active).

A stretch of the results above, as a working copy:
ING5 #3: lactate per cell, drug vs no drug = 0.7
ING5 #4: lactate per cell, drug vs no drug = 0.52 (active)
UST #1: lactate per cell, drug vs no drug = 0.49 (active)
